The values below come from US7468370B2, “[1,7]naphthyridines as PDE4 inhibitors” (Novartis AG, priority 2002, dated 2008).

Protein sequences, listed by entry. Tags and fused reporters are not part of them. Residues count along the entry.
UniProt Q08499, 1-673 isoform 2: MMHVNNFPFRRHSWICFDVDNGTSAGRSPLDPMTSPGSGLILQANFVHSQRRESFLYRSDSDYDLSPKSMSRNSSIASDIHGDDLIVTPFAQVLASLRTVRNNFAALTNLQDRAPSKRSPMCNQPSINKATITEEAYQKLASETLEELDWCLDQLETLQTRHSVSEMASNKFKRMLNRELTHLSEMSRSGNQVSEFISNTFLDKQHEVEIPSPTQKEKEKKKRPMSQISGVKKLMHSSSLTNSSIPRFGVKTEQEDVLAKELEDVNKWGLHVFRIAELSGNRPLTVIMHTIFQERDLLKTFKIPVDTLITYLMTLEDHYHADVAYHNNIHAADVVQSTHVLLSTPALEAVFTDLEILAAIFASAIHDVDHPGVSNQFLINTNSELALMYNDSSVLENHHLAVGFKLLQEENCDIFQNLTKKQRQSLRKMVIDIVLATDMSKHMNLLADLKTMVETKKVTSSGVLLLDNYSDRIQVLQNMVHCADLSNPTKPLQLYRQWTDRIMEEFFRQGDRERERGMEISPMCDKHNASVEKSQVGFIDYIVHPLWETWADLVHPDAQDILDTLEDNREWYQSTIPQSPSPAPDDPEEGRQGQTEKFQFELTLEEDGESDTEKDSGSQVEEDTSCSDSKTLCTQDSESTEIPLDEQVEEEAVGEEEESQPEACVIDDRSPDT

This test concerns the target human PDE4D (Homo sapiens, UniProt Q08499). Briefly: PDE4 Isoenzyme Inhibition Assay (Scintillation Proximity Assay, [3H]-cAMP). The class given is biochemical. The following applies: read-out: IC50 for inhibition of PDE4D; recombinant 6His-tagged human PDE4D3 expressed in Sf21 cells; 1 μM cAMP; 1% DMSO; room temperature.

The structures appear in SMILES notation. Structures were worked out from names or drawings and are uncertain.

In the case of `O=C(O)C1CCN(c2cc3cccnc3c(-c3ccc4c(c3)OCO4)n2)CC1`, the IC50 is 14 nM.
